Patent US8158587B2 (Kyushu Institute of Technology, priority 2006, dated 2012)
HELM strings list residues between dots; [ac] is acetyl, [am] amide, other brackets name non-standard units.

Test: general procedure: solution-phase peptide synthesis; HATU/diisopropylethylamine (cyclization)
Details: coupling step
Substance Boc-L-Ah7(allyl)-Aib-L-Phe-D-Pro-OtBu has a step yield of 35%.
In the case of Boc-L-Ae9-Aib-L-Phe-D-Pro-OtBu, the step yield was 94%.

Same assay, conditions: cyclisation step
With cyclo(-L-Ah7 (allyl)-Aib-L-Phe-D-Pro-) the cyclisation yield was 49%.
For “PEPTIDE1{[Ae9].[Aib].F.[dP]}$PEPTIDE1,PEPTIDE1,1:R1-4:R2$$$V2.0”, the cyclisation yield was 87%.

Same assay, conditions: late stage modification step
cyclo(-L-Ae9(Tfemk)-Aib-L-Phe-D-Pro-) gave a step yield of 93%.
cyclo(-L-Ae9(Actmk)-Aib-L-Phe-D-Pro-) gave a step yield of 79%.
With “PEPTIDE1{[Ah7(acetonyl)].[Aib].F.[dP]}$PEPTIDE1,PEPTIDE1,1:R1-4:R2$$$V2.0” the step yield was 48%.
In the case of “cyclo(-L-Am7(2-pyridylmethyl,sulfoxide)-Aib-L-Phe-D-Pro-)”, the step yield was 45%.
With “cyclo(-L-Am7(CH2CH(OH)OCH3)-Aib-L-Phe-D-Pro-)” the step yield was 90%.
With cyclo(-L-Ae9(Dmamk)-Aib-L-Phe-D-Pro-) the step yield was 68%.
With “cyclo(-L-Am7(acetonyl,sulfoxide)-Aib-L-Phe-D-Pro-)” the step yield was 43%.
In the case of “cyclo(-L-Ah7(glycidyl)-Aib-L-Phe-D-Pro-)”, the step yield was 47%.
“cyclo(-L-Am6(1,1,1-trifluoroacetonyl)-Aib-L-Phe-D-Pro-)” showed a step yield of 47%.
Work on “cyclo(-L-Ae9 (8-OH,9-OCH3)-Aib-L-Phe-D-Pro-)” yielded a step yield of 68%.
Work on cyclo(-L-Ae9(O)-Aib-L-Phe-D-Pro-) yielded a step yield of 89%.
In the case of cyclo(-L-Ae9(Bmk)-Aib-L-Phe-D-Pro-), the step yield was 89%.
“cyclo(-L-Ah7 (CH2COCH2Br)-Aib-L-Phe-D-Pro-)” gave a step yield of 73%.
With “cyclo(-L-Am7(1,1,1-trifluoroacetonyl)-Aib-L-Phe-D-Pro-)” the step yield was 54%.
In the case of cyclo(-L-Ae9(Mtmk)-Aib-L-Phe-D-Pro-), the step yield was 87%.
Substance “cyclo(-L-Am7(4-pyridylmethyl)-Aib-L-Phe-D-Pro-)” has a step yield of 44%.
“cyclo(-L-Am7(acetonyl)-Aib-L-Phe-D-Pro-)” showed a step yield of 59%.
In the case of “PEPTIDE1{[Am7(trifluoroacetonyl,sulfoxide)].[Aib].F.[dP]}$PEPTIDE1,PEPTIDE1,1:R1-4:R2$$$V2.0”, the step yield was 44%.
For “cyclo(-L-Ah7(CH2CH(OH)CH2Br)-Aib-L-Phe-D-Pro-)”, the step yield was 91%.
“PEPTIDE1{[Am7(methyl)].[Aib].F.[dP]}$PEPTIDE1,PEPTIDE1,1:R1-4:R2$$$V2.0” gave a step yield of 72%.
“cyclo(-L-Am8(1,1,1-trifluoroacetonyl)-Aib-L-Phe-D-Pro-)” gave a step yield of 48%.
“cyclo(-L-Am7(3-pyridylmethyl)-Aib-L-Phe-D-Pro-)” gave a step yield of 58%.
“cyclo(-L-Am7(methoxyacetonyl)-Aib-L-Phe-D-Pro-)” gave a step yield of 72%.
With “cyclo(-L-Ae9(8-OH,9-Br)-Aib-L-Phe-D-Pro-)” the step yield was 93%.
In the case of cyclo(-L-Ae9(Mmk)-Aib-L-Phe-D-Pro-), the step yield was 85%.
In the case of cyclo(-L-Am7(benzyl)-Aib-L-Phe-D-Pro-), the step yield was 63%.
“cyclo(-L-Ae9 (8-OH,9-OCH2CH3)-Aib-L-Phe-D-Pro-)” showed a step yield of 70%.
For “cyclo(-L-Am7(2-pyridylmethylthio ether)-Aib-L-Phe-D-Pro-)”, the step yield was 51%.
Work on “PEPTIDE1{[Am5(trifluoroacetonyl)].[Aib].F.[dP]}$PEPTIDE1,PEPTIDE1,1:R1-4:R2$$$V2.0” yielded a step yield of 54%.
“cyclo(-L-Ae9 (8-OH,9-OCH2CF3)-Aib-L-Phe-D-Pro-)” gave a step yield of 75%.
“cyclo(-L-Am7(glycidyl)-Aib-L-Phe-D-Pro-)” gave a step yield of 78%.
For cyclo(-L-Ae9(Emk)-Aib-L-Phe-D-Pro-), the step yield was 93%.

Same assay, conditions: late stage modification step, TFA salt
With H-L-Ah7(allyl)-Aib-L-Phe-D-Pro-OH-TFA the step yield was 80%.
“PEPTIDE1{[Ae9].[Aib].F.[dP]}$PEPTIDE1,PEPTIDE1,1:R1-4:R2$$$V2.0” showed a step yield of 100%.
